Values of other authors, collected in patent US20020151876A1, “Devices and methods for management of bone density” (priority 2001, published 2002).

Test system: patients with Crohn's disease
Conditions: cited from earlier work

Q: With `NCCCC(O)(P(=O)(O)O)P(=O)(O)O` [alendronate] as the compound, how does the “BMD (bone mineral density)” value read?
A: The value was “significantly increased BMD”.
